According to the supplement of paper PMC7666118:
This is one part of the list.

By UniProt entry, the sequences of proteins in these tests, tags left out. Where a name states a change or a piece, a line headed by the entry shows the natural chain unless it says otherwise.
UniProt Q8WUB8: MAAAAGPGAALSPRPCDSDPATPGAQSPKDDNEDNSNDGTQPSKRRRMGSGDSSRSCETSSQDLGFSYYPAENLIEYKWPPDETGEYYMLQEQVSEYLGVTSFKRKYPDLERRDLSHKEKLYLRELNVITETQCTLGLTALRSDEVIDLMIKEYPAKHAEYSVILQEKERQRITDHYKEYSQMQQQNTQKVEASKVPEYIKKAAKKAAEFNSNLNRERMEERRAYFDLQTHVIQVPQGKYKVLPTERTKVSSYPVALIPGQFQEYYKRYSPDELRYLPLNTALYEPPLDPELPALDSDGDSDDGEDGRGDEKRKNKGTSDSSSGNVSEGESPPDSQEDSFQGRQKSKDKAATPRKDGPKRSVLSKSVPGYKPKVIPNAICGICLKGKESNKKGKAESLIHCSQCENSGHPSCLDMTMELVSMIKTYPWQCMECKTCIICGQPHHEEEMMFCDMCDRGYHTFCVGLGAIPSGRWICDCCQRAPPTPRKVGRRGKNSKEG
UniProt P42336, whole entry: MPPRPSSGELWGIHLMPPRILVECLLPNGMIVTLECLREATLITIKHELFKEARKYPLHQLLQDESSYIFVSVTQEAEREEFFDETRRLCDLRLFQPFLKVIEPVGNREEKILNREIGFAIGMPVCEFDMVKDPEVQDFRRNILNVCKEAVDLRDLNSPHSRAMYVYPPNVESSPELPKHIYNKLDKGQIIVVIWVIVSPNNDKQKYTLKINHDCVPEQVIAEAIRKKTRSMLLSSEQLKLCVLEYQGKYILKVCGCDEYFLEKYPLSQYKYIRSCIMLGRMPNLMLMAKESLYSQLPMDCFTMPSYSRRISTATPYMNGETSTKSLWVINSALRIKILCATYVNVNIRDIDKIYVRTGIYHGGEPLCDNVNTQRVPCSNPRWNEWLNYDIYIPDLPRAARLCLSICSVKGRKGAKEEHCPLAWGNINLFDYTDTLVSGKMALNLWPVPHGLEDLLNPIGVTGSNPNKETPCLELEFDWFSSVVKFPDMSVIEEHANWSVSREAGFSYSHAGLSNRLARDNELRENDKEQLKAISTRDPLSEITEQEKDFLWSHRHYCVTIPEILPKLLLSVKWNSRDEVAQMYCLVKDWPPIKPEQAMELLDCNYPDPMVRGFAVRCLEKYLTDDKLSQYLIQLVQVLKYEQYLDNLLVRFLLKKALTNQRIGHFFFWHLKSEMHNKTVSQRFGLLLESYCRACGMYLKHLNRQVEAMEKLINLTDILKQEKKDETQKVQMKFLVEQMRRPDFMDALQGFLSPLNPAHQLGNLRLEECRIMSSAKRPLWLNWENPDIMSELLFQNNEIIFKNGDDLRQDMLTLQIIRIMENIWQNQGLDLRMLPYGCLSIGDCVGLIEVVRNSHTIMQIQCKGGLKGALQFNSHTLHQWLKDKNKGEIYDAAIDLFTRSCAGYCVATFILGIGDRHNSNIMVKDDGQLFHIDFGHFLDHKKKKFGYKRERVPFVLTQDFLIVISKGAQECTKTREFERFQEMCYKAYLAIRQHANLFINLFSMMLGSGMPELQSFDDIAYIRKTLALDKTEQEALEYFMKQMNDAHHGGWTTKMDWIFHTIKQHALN
UniProt Q13526, whole entry: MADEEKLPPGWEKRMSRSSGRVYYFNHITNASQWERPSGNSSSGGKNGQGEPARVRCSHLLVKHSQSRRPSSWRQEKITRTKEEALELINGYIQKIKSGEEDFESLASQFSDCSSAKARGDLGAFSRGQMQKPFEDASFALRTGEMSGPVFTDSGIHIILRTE
UniProt Q5SGD2: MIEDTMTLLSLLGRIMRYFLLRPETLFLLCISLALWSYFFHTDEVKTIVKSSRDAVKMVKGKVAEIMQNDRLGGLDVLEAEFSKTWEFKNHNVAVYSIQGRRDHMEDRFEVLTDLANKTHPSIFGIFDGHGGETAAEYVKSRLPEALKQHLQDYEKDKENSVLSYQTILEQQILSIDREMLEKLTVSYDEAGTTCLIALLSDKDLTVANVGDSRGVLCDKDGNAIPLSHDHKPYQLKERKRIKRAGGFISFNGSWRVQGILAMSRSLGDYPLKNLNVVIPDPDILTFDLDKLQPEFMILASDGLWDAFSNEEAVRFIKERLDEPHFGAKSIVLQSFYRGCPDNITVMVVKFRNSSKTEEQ
UniProt P36871: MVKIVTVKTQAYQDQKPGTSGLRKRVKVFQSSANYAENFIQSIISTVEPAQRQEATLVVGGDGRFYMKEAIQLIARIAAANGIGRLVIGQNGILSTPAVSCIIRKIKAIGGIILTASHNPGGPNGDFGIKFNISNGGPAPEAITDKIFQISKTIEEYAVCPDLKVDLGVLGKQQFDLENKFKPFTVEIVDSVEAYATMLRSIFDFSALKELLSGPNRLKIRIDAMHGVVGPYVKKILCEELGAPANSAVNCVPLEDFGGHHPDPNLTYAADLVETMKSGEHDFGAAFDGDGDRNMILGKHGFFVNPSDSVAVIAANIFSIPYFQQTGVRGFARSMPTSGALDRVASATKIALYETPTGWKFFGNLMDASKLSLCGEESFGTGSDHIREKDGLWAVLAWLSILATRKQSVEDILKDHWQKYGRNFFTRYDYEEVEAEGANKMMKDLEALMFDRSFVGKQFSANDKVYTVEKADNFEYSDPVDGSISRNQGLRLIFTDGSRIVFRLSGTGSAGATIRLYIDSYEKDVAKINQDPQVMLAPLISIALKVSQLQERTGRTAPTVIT
UniProt P07205: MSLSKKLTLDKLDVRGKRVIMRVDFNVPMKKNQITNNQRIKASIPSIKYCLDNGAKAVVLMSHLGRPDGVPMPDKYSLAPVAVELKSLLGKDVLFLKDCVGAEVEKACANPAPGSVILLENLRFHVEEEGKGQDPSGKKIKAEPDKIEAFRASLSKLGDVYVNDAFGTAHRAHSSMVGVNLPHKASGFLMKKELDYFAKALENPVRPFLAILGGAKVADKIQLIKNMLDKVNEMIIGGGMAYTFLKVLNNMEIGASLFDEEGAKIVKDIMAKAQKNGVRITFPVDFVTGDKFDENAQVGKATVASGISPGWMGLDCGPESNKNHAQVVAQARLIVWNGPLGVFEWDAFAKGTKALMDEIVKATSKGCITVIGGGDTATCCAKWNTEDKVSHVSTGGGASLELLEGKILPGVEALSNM
UniProt P29590: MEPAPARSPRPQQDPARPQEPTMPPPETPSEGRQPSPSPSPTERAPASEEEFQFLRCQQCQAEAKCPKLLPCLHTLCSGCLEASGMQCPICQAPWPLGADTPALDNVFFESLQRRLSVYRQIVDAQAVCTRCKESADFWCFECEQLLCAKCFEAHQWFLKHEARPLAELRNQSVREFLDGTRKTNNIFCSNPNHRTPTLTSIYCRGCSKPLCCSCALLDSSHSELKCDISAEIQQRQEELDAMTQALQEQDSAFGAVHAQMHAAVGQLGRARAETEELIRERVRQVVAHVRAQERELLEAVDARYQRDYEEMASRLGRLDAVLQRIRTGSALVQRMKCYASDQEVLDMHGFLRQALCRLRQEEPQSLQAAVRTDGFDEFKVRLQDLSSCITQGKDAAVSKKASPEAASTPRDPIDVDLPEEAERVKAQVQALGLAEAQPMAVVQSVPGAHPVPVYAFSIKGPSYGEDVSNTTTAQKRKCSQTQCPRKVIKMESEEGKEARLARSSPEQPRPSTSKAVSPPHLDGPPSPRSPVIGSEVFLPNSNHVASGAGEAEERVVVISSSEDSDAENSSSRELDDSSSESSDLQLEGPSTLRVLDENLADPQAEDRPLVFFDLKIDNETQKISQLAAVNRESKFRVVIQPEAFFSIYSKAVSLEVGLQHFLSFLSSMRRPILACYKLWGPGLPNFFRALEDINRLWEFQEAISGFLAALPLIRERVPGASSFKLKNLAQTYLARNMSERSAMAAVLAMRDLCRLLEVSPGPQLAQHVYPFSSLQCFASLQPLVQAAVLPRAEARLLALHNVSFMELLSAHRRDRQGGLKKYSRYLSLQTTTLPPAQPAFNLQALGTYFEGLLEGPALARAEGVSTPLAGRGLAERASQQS
UniProt O60678: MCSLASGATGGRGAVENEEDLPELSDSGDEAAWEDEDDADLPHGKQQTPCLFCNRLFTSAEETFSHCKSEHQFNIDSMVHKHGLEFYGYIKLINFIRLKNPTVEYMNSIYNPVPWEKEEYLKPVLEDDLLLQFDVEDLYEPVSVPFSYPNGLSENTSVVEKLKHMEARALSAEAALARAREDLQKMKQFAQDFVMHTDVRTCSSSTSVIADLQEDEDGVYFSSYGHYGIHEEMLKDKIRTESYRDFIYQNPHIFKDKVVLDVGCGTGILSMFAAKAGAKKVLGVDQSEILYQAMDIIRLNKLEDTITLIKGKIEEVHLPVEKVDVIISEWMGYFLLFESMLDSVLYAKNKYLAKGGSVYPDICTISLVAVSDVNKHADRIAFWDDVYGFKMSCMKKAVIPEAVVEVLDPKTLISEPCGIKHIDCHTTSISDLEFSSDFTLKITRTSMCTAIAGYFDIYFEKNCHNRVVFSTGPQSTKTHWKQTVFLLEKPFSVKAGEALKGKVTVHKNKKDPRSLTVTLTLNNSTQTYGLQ
UniProt P30153, whole entry: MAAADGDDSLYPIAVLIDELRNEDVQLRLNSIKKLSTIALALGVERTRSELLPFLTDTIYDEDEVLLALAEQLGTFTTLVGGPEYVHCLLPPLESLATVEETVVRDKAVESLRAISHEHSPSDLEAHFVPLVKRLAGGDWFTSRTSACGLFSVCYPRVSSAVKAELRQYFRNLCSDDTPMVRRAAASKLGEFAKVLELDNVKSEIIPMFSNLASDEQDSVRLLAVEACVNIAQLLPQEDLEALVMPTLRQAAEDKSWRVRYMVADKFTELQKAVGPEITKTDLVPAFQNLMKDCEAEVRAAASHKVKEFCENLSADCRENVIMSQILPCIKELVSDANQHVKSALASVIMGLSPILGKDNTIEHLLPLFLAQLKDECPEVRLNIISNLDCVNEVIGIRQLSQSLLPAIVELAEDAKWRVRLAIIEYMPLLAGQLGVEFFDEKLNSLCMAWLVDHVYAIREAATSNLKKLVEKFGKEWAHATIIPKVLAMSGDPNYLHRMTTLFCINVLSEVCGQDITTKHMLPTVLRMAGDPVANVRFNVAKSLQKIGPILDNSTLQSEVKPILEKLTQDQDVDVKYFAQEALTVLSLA
UniProt Q16537, whole entry: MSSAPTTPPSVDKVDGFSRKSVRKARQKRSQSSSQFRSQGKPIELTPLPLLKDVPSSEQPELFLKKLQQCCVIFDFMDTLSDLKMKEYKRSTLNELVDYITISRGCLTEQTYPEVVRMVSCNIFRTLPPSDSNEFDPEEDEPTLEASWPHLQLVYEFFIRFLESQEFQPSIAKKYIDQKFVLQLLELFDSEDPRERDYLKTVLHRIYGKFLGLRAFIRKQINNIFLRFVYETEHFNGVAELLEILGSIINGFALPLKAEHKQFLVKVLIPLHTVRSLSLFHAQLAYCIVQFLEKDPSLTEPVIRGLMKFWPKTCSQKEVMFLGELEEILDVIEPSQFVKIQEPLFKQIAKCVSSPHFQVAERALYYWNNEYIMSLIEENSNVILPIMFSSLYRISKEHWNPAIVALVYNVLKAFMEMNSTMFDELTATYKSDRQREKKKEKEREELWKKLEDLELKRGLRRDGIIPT
UniProt Q92521: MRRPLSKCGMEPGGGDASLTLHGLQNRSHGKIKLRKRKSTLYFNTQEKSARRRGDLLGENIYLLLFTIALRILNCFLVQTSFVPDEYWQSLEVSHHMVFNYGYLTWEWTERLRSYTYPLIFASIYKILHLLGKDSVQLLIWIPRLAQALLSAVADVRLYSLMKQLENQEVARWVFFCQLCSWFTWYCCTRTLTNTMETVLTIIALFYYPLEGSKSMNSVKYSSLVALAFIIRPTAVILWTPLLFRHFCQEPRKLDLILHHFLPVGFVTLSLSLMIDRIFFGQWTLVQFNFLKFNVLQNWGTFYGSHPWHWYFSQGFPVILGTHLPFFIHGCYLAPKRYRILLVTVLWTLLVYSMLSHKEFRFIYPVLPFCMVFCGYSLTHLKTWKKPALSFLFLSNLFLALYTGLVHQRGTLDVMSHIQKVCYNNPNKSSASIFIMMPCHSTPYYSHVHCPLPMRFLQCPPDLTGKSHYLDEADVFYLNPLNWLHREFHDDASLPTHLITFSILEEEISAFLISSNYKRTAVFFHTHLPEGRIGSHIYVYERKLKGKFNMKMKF
UniProt Q9H490: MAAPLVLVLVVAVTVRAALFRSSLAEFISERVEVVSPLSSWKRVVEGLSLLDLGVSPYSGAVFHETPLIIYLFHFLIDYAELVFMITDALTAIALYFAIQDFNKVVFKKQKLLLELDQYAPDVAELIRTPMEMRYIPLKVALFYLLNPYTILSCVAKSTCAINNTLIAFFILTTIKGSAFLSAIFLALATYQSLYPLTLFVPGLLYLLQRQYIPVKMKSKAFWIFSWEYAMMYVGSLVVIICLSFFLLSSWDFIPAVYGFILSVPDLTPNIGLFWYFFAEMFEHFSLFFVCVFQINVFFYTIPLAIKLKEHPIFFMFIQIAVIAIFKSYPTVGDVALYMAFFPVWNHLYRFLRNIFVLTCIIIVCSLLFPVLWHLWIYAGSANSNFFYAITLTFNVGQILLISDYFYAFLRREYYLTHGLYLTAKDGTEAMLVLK

Compound: COc1ccc(Cn2ccc3ccc(C(=O)NO)cc32)cc1
Assay: dose-dependent thermal stabilisation call (2D-TPP, DLPTP, 10% FDR) (binary (1 = stabilised)); higher = stabilised by the compound
Settings: system: HL-60 intact cells; concentration range 0.04-10 µM

| Target | dose-dependent thermal stabilisation call |
| --- | --- |
| PRELID1 (UniProt Q9Y255) | inactive: 0 |
| PHGDH (UniProt O43175) | inactive: 0 |
| PIR (UniProt O00625) | inactive: 0 |
| PHACTR4 (UniProt Q8IZ21) | inactive: 0 |
| PPP3CA (UniProt Q08209) | inactive: 0 |
| PRDX5 (UniProt P30044) | inactive: 0 |
| PRKACA (UniProt P17612) | inactive: 0 |
| PPME1 (UniProt Q9Y570) | inactive: 0 |
| PPAT (UniProt Q06203) | inactive: 0 |
| PPP4C (UniProt P60510) | inactive: 0 |
| PHF10 (UniProt Q8WUB8) | inactive: 0 |
| PRKAB1 (UniProt Q9Y478) | inactive: 0 |
| PIK3CA (UniProt P42336) | inactive: 0 |
| PIN1 (UniProt Q13526) | inactive: 0 |
| PGGT1B (UniProt P53609) | inactive: 0 |
| PIP5K1A (UniProt Q99755) | inactive: 0 |
| PPM1L (UniProt Q5SGD2) | inactive: 0 |
| PRKACB (UniProt P22694) | inactive: 0 |
| PGM1 (UniProt P36871) | active: 1 |

| Target | dose-dependent thermal stabilisation call |
| --- | --- |
| PIGM (UniProt Q9H3S5) | inactive: 0 |
| PGK2 (UniProt P07205) | inactive: 0 |
| PML (UniProt P29590) | inactive: 0 |
| PRMT3 (UniProt O60678) | inactive: 0 |
| POLE3 (UniProt Q9NRF9) | inactive: 0 |
| PPP2R1A (UniProt P30153) | inactive: 0 |
| PPP2R5E (UniProt Q16537) | inactive: 0 |
| POMP (UniProt Q9Y244) | inactive: 0 |
| PHF6 (UniProt Q8IWS0) | inactive: 0 |
| PIGB (UniProt Q92521) | inactive: 0 |
| PIGU (UniProt Q9H490) | inactive: 0 |
| POLR2D (UniProt O15514) | inactive: 0 |
| PHC2 (UniProt Q8IXK0) | inactive: 0 |
| POLE (UniProt Q07864) | inactive: 0 |
| POLB (UniProt P06746) | inactive: 0 |
| PI4K2B (UniProt Q8TCG2) | inactive: 0 |
| POLR2L (UniProt P62875) | inactive: 0 |
| PITPNM1 (UniProt O00562) | inactive: 0 |
| PLSCR3 (UniProt Q9NRY6) | inactive: 0 |

Some of the entries above in another layout:
POLR2D (UniProt O15514)
  dose-dependent thermal stabilisation call: inactive: 0
PHC2 (UniProt Q8IXK0)
  dose-dependent thermal stabilisation call: inactive: 0
